# Reference: the supplement of paper PMC8728848
# Some of the results follow.
# B1: Mermaid2 (Stilbonema majum) (protein)
# chain: MGSSHHHHHHSSGLVPRGSHMAASGWLRSPQGTVVKLYRRSLSWSKADEFCKDVDGRLVVDRTADMHLFLIKNVLKEKKSRVWVGLRRTAPHSRTWIWSDGTRQNEDDLNTNLWLRDEPNDAAGEEECALFMYSPWEKAWGLNDYLCRGGCRSYQFICEKGIR
# Assays:
# Assay in all cases: glycan array binding signal (z-score within array); higher = stronger binding
# Conditions in all cases: glycan notation: IUPAC condensed, linker removed
# [1] = molecular target: GlcNAc(b1-3)Gal(b1-4)Glc
# Method in brief: (§1)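 Glycan array data were curated from 3228 arrays in the Consortium for Functional Glycomics database and kept only where the protein sequence was available. Glycan names were converted to IUPAC-condensed notation, and columns mapping to the same glycan were averaged. The binding signal is a within-array Z-score, averaged across arrays of the same protein sequence at different concentrations or buffers and across linkers. Negative Z-scores can be read as non-binding.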
# [2] = molecular target: GlcNAc(b1-3)Gal(b1-4)GlcNAc
# Method in brief: as §1
# [3] = molecular target: GlcNAc(b1-3)Gal(b1-4)GlcNAc(b1-2)Man(a1-3)[GlcNAc(b1-3)Gal(b1-4)GlcNAc(b1-2)Man(a1-6)]Man(b1-4)GlcNAc(b1-4)GlcNAc
# Method in brief: as §1
# [4] = molecular target: GlcNAc(b1-3)Gal(b1-4)GlcNAc(b1-2)Man(a1-3)[GlcNAc(b1-3)Gal(b1-4)GlcNAc(b1-2)Man(a1-6)]Man(b1-4)GlcNAc(b1-4)[Fuc(a1-6)]GlcNAc
# Method in brief: as §1
# [5] = molecular target: GlcNAc(b1-3)Gal(b1-4)GlcNAc(b1-2)[GlcNAc(b1-3)Gal(b1-4)GlcNAc(b1-6)]Man(a1-6)[GlcNAc(b1-3)Gal(b1-4)GlcNAc(b1-2)Man(a1-3)]Man(b1-4)GlcNAc(b1-4)GlcNAc
# Method in brief: as §1
# [6] = molecular target: GlcNAc(b1-3)Gal(b1-4)GlcNAc(b1-3)Gal(b1-4)GlcNAc
# Method in brief: as §1
# [7] = molecular target: GlcNAc(b1-3)Gal(b1-4)GlcNAc(b1-3)Gal(b1-4)GlcNAc(b1-2)Man(a1-3)[GlcNAc(b1-3)Gal(b1-4)GlcNAc(b1-3)Gal(b1-4)GlcNAc(b1-2)Man(a1-6)]Man(b1-4)GlcNAc(b1-4)GlcNAc
# Method in brief: as §1
# [8] = molecular target: GlcNAc(b1-3)Gal(b1-4)GlcNAc(b1-3)Gal(b1-4)GlcNAc(b1-2)Man(a1-3)[GlcNAc(b1-3)Gal(b1-4)GlcNAc(b1-3)Gal(b1-4)GlcNAc(b1-2)Man(a1-6)]Man(b1-4)GlcNAc(b1-4)[Fuc(a1-6)]GlcNAc
# Method in brief: as §1
# [9] = molecular target: GlcNAc(b1-3)Gal(b1-4)GlcNAc(b1-3)Gal(b1-4)GlcNAc(b1-2)[GlcNAc(b1-3)Gal(b1-4)GlcNAc(b1-3)Gal(b1-4)GlcNAc(b1-6)]Man(a1-6)[GlcNAc(b1-3)Gal(b1-4)GlcNAc(b1-3)Gal(b1-4)GlcNAc(b1-2)Man(a1-3)]Man(b1-4)GlcNAc(b1-4)[Fuc(a1-6)]GlcNAc
# Method in brief: as §1
# [10] = molecular target: GlcNAc(b1-3)Gal(b1-4)GlcNAc(b1-3)Gal(b1-4)GlcNAc(b1-3)Gal(b1-4)GlcNAc(b1-2)Man(a1-3)[GlcNAc(b1-3)Gal(b1-4)GlcNAc(b1-3)Gal(b1-4)GlcNAc(b1-3)Gal(b1-4)GlcNAc(b1-2)Man(a1-6)]Man(b1-4)GlcNAc(b1-4)GlcNAc
# Method in brief: as §1
# [11] = molecular target: GlcNAc(b1-3)Gal(b1-4)GlcNAc(b1-3)Gal(b1-4)GlcNAc(b1-3)Gal(b1-4)GlcNAc(b1-2)Man(a1-3)[GlcNAc(b1-3)Gal(b1-4)GlcNAc(b1-3)Gal(b1-4)GlcNAc(b1-3)Gal(b1-4)GlcNAc(b1-2)Man(a1-6)]Man(b1-4)GlcNAc(b1-4)[Fuc(a1-6)]GlcNAc
# Method in brief: as §1
# [12] = molecular target: GlcNAc(b1-3)Gal(b1-4)GlcNAc(b1-3)Gal(b1-4)GlcNAc(b1-3)Gal(b1-4)GlcNAc(b1-2)[GlcNAc(b1-3)Gal(b1-4)GlcNAc(b1-3)Gal(b1-4)GlcNAc(b1-3)Gal(b1-4)GlcNAc(b1-6)]Man(a1-6)[GlcNAc(b1-3)Gal(b1-4)GlcNAc(b1-3)Gal(b1-4)GlcNAc(b1-3)Gal(b1-4)GlcNAc(b1-2)Man(a1-3)]Man(b1-4)GlcNAc(b1-4)[Fuc(a1-6)]GlcNAc
# Method in brief: as §1
# [13] = molecular target: GlcNAc(b1-3)Gal(b1-4)GlcNAc(b1-3)Gal(b1-4)GlcNAc(b1-3)Gal(b1-4)GlcNAc(b1-3)Gal(b1-4)GlcNAc(b1-2)Man(a1-3)[GlcNAc(b1-3)Gal(b1-4)GlcNAc(b1-3)Gal(b1-4)GlcNAc(b1-3)Gal(b1-4)GlcNAc(b1-3)Gal(b1-4)GlcNAc(b1-2)Man(a1-6)]Man(b1-4)GlcNAc(b1-4)GlcNAc
# Method in brief: as §1
# [14] = molecular target: GlcNAc(b1-3)Gal(b1-4)GlcNAc(b1-3)Gal(b1-4)GlcNAc(b1-3)Gal(b1-4)GlcNAc(b1-3)Gal(b1-4)GlcNAc(b1-2)Man(a1-3)[GlcNAc(b1-3)Gal(b1-4)GlcNAc(b1-3)Gal(b1-4)GlcNAc(b1-3)Gal(b1-4)GlcNAc(b1-3)Gal(b1-4)GlcNAc(b1-2)Man(a1-6)]Man(b1-4)GlcNAc(b1-4)[Fuc(a1-6)]GlcNAc
# Method in brief: as §1
# [15] = molecular target: GlcNAc(b1-3)Gal(b1-4)GlcNAc(b1-3)Gal(b1-4)GlcNAc(b1-3)Gal(b1-4)GlcNAc(b1-3)Gal(b1-4)GlcNAc(b1-2)[GlcNAc(b1-3)Gal(b1-4)GlcNAc(b1-3)Gal(b1-4)GlcNAc(b1-3)Gal(b1-4)GlcNAc(b1-3)Gal(b1-4)GlcNAc(b1-6)]Man(a1-6)[GlcNAc(b1-3)Gal(b1-4)GlcNAc(b1-3)Gal(b1-4)GlcNAc(b1-3)Gal(b1-4)GlcNAc(b1-3)Gal(b1-4)GlcNAc(b1-2)Man(a1-3)]Man(b1-4)GlcNAc(b1-4)[Fuc(a1-6)]GlcNAc
# Method in brief: as §1
# [16] = molecular target: GlcNAc(b1-3)Gal(b1-4)GlcNAc(b1-3)Gal(b1-4)GlcNAc(b1-3)GalNAc
# Method in brief: as §1
# [17] = molecular target: GlcNAc(b1-3)Gal(b1-4)GlcNAc(b1-3)GalNAc
# Method in brief: as §1
# [18] = molecular target: GlcNAc(b1-3)Gal(b1-4)GlcNAc(b1-3)[GlcNAc(b1-3)Gal(b1-4)GlcNAc(b1-3)]GalNAc
# Method in brief: as §1
# [19] = molecular target: GlcNAc(b1-3)Gal(b1-4)GlcNAc(b1-6)[Gal(b1-3)]GalNAc
# Method in brief: as §1
# [20] = molecular target: GlcNAc(b1-3)Gal(b1-4)GlcNAc(b1-6)[GlcNAc(b1-3)Gal(b1-3)]GalNAc
# Method in brief: as §1
# [21] = molecular target: GlcNAc(b1-3)Gal(b1-4)GlcNAc(b1-6)[GlcNAc(b1-3)]Gal(b1-4)GlcNAc
# Method in brief: as §1
# [22] = molecular target: GlcNAc(b1-3)GalNAc
# Method in brief: as §1
# [23] = molecular target: GlcNAc(b1-3)Man
# Method in brief: as §1
# [24] = molecular target: GlcNAc(b1-3)[GlcNAc(b1-4)][GlcNAc(b1-6)]GlcNAc
# Method in brief: as §1
# [25] = molecular target: GlcNAc(b1-3)[GlcNAc(b1-6)]Gal(b1-4)GlcNAc
# Method in brief: as §1
# [26] = molecular target: GlcNAc(b1-3)[GlcNAc(b1-6)]GalNAc
# Method in brief: as §1
# [27] = molecular target: GlcNAc(b1-4)Gal(b1-4)GlcNAc
# Method in brief: as §1
# [28] = molecular target: GlcNAc(b1-4)GlcNAc
# Method in brief: as §1
# [29] = molecular target: GlcNAc(b1-4)GlcNAc(b1-4)GlcNAc
# Method in brief: as §1
# [30] = molecular target: GlcNAc(b1-4)GlcNAc(b1-4)GlcNAc(b1-4)GlcNAc(b1-4)GlcNAc
# Method in brief: as §1
# [31] = molecular target: GlcNAc(b1-4)GlcNAc(b1-4)GlcNAc(b1-4)GlcNAc(b1-4)GlcNAc(b1-4)GlcNAc
# Method in brief: as §1
# [32] = molecular target: GlcNAc(b1-4)[GlcNAc(b1-6)]GalNAc
# Method in brief: as §1
# [33] = molecular target: GlcNAc(b1-6)Gal(b1-4)GlcNAc
# Method in brief: as §1
# [34] = molecular target: GlcNAc(b1-6)GalNAc
# Method in brief: as §1
# [35] = molecular target: GlcNAc6S(b1-3)Gal(b1-4)GlcNAc
# Method in brief: as §1
# [36] = molecular target: Kdn(a2-3)Gal(b1-3)GalNAc
# Method in brief: as §1
# [37] = molecular target: Kdn(a2-3)Gal(b1-3)GlcNAc
# Method in brief: as §1
# [38] = molecular target: Kdn(a2-3)Gal(b1-4)Glc
# Method in brief: as §1
# [39] = molecular target: Kdn(a2-3)Gal(b1-4)GlcNAc
# Method in brief: as §1
# [40] = molecular target: Kdn(a2-3)Gal(b1-4)[Fuc(a1-3)]GlcNAc
# Method in brief: as §1
# [41] = molecular target: Kdn(a2-6)Gal(b1-4)GlcNAc
# Method in brief: as §1
# [42] = molecular target: Man(a1-2)Man(a1-2)Man(a1-3)Man
# Method in brief: as §1
# [43] = molecular target: Man(a1-2)Man(a1-2)Man(a1-6)[Man(a1-3)]Man
# Method in brief: as §1
# [44] = molecular target: Man(a1-2)Man(a1-3)Man
# Method in brief: as §1
# [45] = molecular target: Man(a1-2)Man(a1-3)[Man(a1-2)Man(a1-6)]Man
# Method in brief: as §1
binder,measurement,setting,value
B1,glycan array binding signal (z-score),[1],-0.367
same,glycan array binding signal (z-score),[2],-0.634
same,glycan array binding signal (z-score),[3],-0.025
same,glycan array binding signal (z-score),[4],0.384
same,glycan array binding signal (z-score),[5],0.568
same,glycan array binding signal (z-score),[6],-0.357
same,glycan array binding signal (z-score),[7],0.201
same,glycan array binding signal (z-score),[8],0.969
same,glycan array binding signal (z-score),[9],0.522
same,glycan array binding signal (z-score),[10],-0.346
same,glycan array binding signal (z-score),[11],0.765
same,glycan array binding signal (z-score),[12],0.306
same,glycan array binding signal (z-score),[13],0.163
same,glycan array binding signal (z-score),[14],0.011
same,glycan array binding signal (z-score),[15],-0.292
same,glycan array binding signal (z-score),[16],-0.057
same,glycan array binding signal (z-score),[17],-0.528
same,glycan array binding signal (z-score),[18],0.761
same,glycan array binding signal (z-score),[19],-0.528
same,glycan array binding signal (z-score),[20],0.067
same,glycan array binding signal (z-score),[21],-0.719
same,glycan array binding signal (z-score),[22],-0.441
same,glycan array binding signal (z-score),[23],0.674
same,glycan array binding signal (z-score),[24],-0.642
same,glycan array binding signal (z-score),[25],-0.411
same,glycan array binding signal (z-score),[26],-0.669
same,glycan array binding signal (z-score),[27],0.774
same,glycan array binding signal (z-score),[28],2.91
same,glycan array binding signal (z-score),[29],0.454
same,glycan array binding signal (z-score),[30],1.2
same,glycan array binding signal (z-score),[31],0.459
same,glycan array binding signal (z-score),[32],-0.383
same,glycan array binding signal (z-score),[33],0.323
same,glycan array binding signal (z-score),[34],-0.029
same,glycan array binding signal (z-score),[35],-0.623
same,glycan array binding signal (z-score),[36],-0.317
same,glycan array binding signal (z-score),[37],0.013
same,glycan array binding signal (z-score),[38],0.675
same,glycan array binding signal (z-score),[39],1.56
same,glycan array binding signal (z-score),[40],0.239
same,glycan array binding signal (z-score),[41],-0.819
same,glycan array binding signal (z-score),[42],-0.558
same,glycan array binding signal (z-score),[43],-0.456
same,glycan array binding signal (z-score),[44],-0.419
same,glycan array binding signal (z-score),[45],-0.567

# Three consecutive records already listed:
binder,measurement,setting,value
B1,glycan array binding signal (z-score),[12],0.306
same,glycan array binding signal (z-score),[13],0.163
same,glycan array binding signal (z-score),[14],0.011
